In patent publication US8084016B2, “Measurement of biosynthesis and breakdown rates of biological molecules that are inaccessible or not easily accessible to direct sampling, non-invasively, by label incorporation into metabolic derivatives and catabolitic products” (The Regents of the University of California, priority 2002, dated 2011):

Tested on: muscle myosin
Experiment: Incorporation of ^2H from ^2H2O into urinary 3-methyl-histidine (muscle myosin biosynthesis)
Assay type: in vivo
Conditions: human subjects, intake of ^2H2O for 4-8 weeks
Excerpt: An individual undergoing a physical training program or medical therapeutic regimen intended to increase muscle mass by increasing muscle myosin biosynthesis (e.g., an athlete; an elderly person receiving physical therapy after a stroke; a patient with cachexia related to cancer or AIDS who is receiving nutritional or anabolic agent therapy) is given a labeled precursor that is incorporated into the body's proteins during biosynthesis. […] […] […] Total urinary amino acids are isolated with an SPE column. The amino acids are derivatized for gas chromatographic/mass spectrometric analysis. […] The derivatized amino acids are injected into a gas chromatograph/mass spectrometer (e.g., HP 5973 instrument), using, e.g., a DB-225 column. The mass spectrum of the 3-methyl histidine peak is collected while monitoring mass isotopomers at m/z 267 and 268 (parent and M+1 ions, respectively). Relative abundances of the above mass isotopomers are quantified in samples and compared to unlabeled standards ([…] 267+268]=0.1200 in samples and 0.0960 in standards). The proportion of labeled:unlabeled molecules present in the sample is calculated for 3-methylhistidine using MIDA.

With `Cn1cncc1C[C@H](N)C(=O)O` [3-methyl-histidine] the “A1^∞: calculated maximal EM1 of 3-methyl histidine at measured ^2H2O” value was 3.3 and the “EM1: excess M + 1 mass isotopomer in t-butyl dimethyl silyl derivative of 3-methyl histidine” value (urinary) was 2.6.

No dose or concentration is given here for some results.
